# Results taken from US20220151236A1, “NOVEL OXADIAZOLE COMPOUNDS FOR CONTROLLING OR PREVENTING PHYTOPATHOGENIC FUNGI” (PI INDUSTRIES LTD., priority 2019, published 2022).
# Some results were stated once for a whole list of compounds, not compound by compound.
# Test system: Fusarium culmorum
# Assay: Fusarium culmorum (Foot Rot of Cereals): radial mycelial growth on potato dextrose agar
# Assay type: cell-based
# Conditions: 300 ppm, 25° C., 60% relative humidity, seven days
row,SMILES,control (radial growth compared to the untreated check)
1,"FC(F)(F)c1nc(-c2ccn3cc(CSc4ccccc4)nc3c2)no1 [Compound 50, 3-(2-((phenylthio)methyl)imidazo[1,2-a]pyridin-7-yl)-5-(trifluoromethyl)-1,2,4-oxadiazole]",≥ 70%
2,"O=S(=O)(Cc1cn2cc(-c3noc(C(F)(F)F)n3)ccc2n1)c1ccccc1 [Compound 116, 3-(2-((phenylsulfonyl)methyl)imidazo[1,2-a]pyridin-6-yl)-5-(trifluoromethyl)-1,2,4-oxadiazole]",≥ 70%
3,"O=S(=O)(Cc1cn2cc(-c3noc(C(F)(F)F)n3)ccc2n1)c1ccc(Cl)c(Cl)c1 [Compound 117, 3-(2-(((3,4-dichlorophenyl)sulfonyl)methyl)imidazo[1,2-a]pyridin-6-yl)-5-(trifluoromethyl)-1,2,4-oxadiazole]",≥ 70%
